From PubChem BioAssay AID445 (National Center for Advancing Translational Sciences (NCATS), 2006)
The list shows a part of the results. These are further read-outs of the screen, such as a control signal, another cell line or another target. No call is given for them. The list favours compounds with an active or inconclusive main result. The note in brackets gives the kind of curve behind each potency; many fits are weak.

Assay: IkB Signaling
Details: ABC-DLBCL IkBa-CBG/CBR dual luciferase ratio (green luciferase fused to IkBa over red control in OCI-Ly3 lymphoma cells), 4 h
In short: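 In this assay, an IκBα–CBG68 fusion accumulates when IKK-driven degradation is blocked; native CBR normalizes for cell number. OCI-Ly3 cells were treated 4 h with compound and doxycycline, then green and red light read after Chroma-Glo addition.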

[1] = measured here: control luc red channel unless noted
[2] = measured here: IkB-luc green channel
[3] = measured here: control luc red channel

## COc1ccc(OC)c(NC(=O)CSc2cn(CC(=O)N3CCCCCC3)c3ccccc23)c1
[1]
  AC50: 20 µM [falling, partial curve]

## CCSc1ncc(Cl)c(C(=O)N(Cc2ccc(N(C)C)cc2)Cc2ccco2)n1
[1]
  AC50: 12.6 µM [falling, partial curve]

## Cc1ccc(NC(=O)CSc2nc3ccccc3nc2Cc2ccccc2)c(C)c1
[1]
  AC50: 20 µM [falling, partial curve, poor fit]

## Cc1cccc(NC(=O)c2cc(-c3ccc4c(c3)OCCO4)on2)c1
[1]
  AC50: 0.0631 µM [falling, full curve]

## COc1ccc(C)cc1NC(=O)C1CCN(S(=O)(=O)c2ccc3c(c2)CCCN3C(C)=O)CC1
[1]
  AC50: 39.8 µM [falling, single point]

## Cc1ccc(Cl)cc1N1CCN(C(=O)C2CCN(S(=O)(=O)c3cccnc3)CC2)CC1
[1]
  AC50: 25.1 µM [falling, partial curve]

## Cc1nc2nc(NCc3cccc(Cl)c3)[nH]n2c(=O)c1Cc1ccccc1
[1]
  AC50: 39.8 µM [falling, single point]

## COC(=O)c1ccc(Cn2c(SCc3ccccc3F)nc3ccncc32)cc1
[1]
  AC50: 20 µM [falling, single point]

## CC1C(=O)Nc2ccc(S(=O)(=O)NCc3ccc(N(C)C)cc3)cc2NC1=O (stereo not drawn)
[1]
  AC50: 31.6 µM [falling, single point]

## O=C(Nc1ccccc1)c1ccccc1O
[1]
  AC50: 12.6 µM [falling, partial curve]

## COc1ccc(OCCn2c(C(C)Oc3ccccc3)nc3ccccc32)cc1 (stereo not drawn)
[1]
  AC50: 15.8 µM [falling, partial curve]

## C=CCn1c(SCC(=O)c2cccs2)nc2sc(C)cc2c1=O
[1]
  AC50: 3.16 µM [falling, full curve, poor fit]

## Cc1ccc(Cl)cc1-n1ncc2c(NCc3ccc(F)cc3)ncnc21
[1]
  AC50: 25.1 µM [falling, single point]

## CCN(CC)S(=O)(=O)c1ccc2c(c1)nc(CN(C)C(=O)Nc1cccc(Cl)c1)n2C
[1]
  AC50: 3.16 µM [rising, single point]

## COc1cccc(C(=O)c2cn(CC(=O)Nc3cccc(C(F)(F)F)c3)c3nc(C)ccc3c2=O)c1
[1]
  AC50: 39.8 µM [falling, partial curve]

## CC(=O)N1CCc2cc(S(=O)(=O)NC(CC(C)C)C(=O)NCCc3ccc(C)cc3)ccc21 (stereo not drawn)
[1]
  AC50: 10 µM [falling, partial curve]

## COc1ccc(Cn2c(CCC(=O)Nc3ccc(C)c(C)c3)nc3cccnc32)cc1
[1]
  AC50: 39.8 µM [rising, single point] [measured here: IkB-luc green channel]

## CCCN(CCC)C(=O)CN1C(=O)CSc2ccc(S(=O)(=O)N3CCC(C)CC3)cc21
[1]
  AC50: 12.6 µM [falling, single point]

## CN(C)Cc1nc2c(c(=O)[nH]1)C1(CCCCC1)Cc1ccccc1-2
[1]
  AC50: 39.8 µM [rising, single point] [measured here: IkB-luc green channel]

## Cc1ccc(-c2nc(-c3cc4cccc(OCc5ccc(F)cc5)c4oc3=O)no2)cc1
[1]
  AC50: 31.6 µM [falling, partial curve]

## CCN(c1ccccc1)S(=O)(=O)c1nnc(NC(=O)C(C)(C)C)s1
[1]
  AC50: 1 µM [rising, full curve]

## CCN1CCc2nc3sc(C(=O)c4ccccc4)c(N)c3cc2C1
[1]
  AC50: 39.8 µM [falling, single point]

## CC(CNC(=O)c1ccc(CSc2nc3ccncc3n2Cc2ccc(F)cc2)cc1)c1ccccc1 (stereo not drawn)
[1]
  AC50: 10 µM [falling, partial curve]

## Cc1nn(Cc2ccccc2)c(C)c1NC(=O)CSc1nnc(-c2cc(Cl)ccc2O)n1C
[1]
  AC50: 5.01 µM [falling, partial curve]

## CCc1ccc(CNCc2c(C(=O)O)c(C)n(Cc3c(F)cccc3Cl)c2C)cc1
[1]
  AC50: 25.1 µM [falling, single point]

## CCOc1cccc(C(=O)N(Cc2ccc(N(C)C)cc2)CC2CCCO2)c1 (stereo not drawn)
[1]
  AC50: 12.6 µM [falling, partial curve]

## CCOc1ccc(C(=O)CCN2CCCCC2)cc1
[2]
  AC50: 6.31 µM [falling, single point]
[3]
  AC50: 5.01 µM [falling, partial curve]

## COc1ccc(-c2cccc(NS(=O)(=O)c3ccc(C)s3)c2)nn1
[1]
  AC50: 2.51 µM [falling, full curve, poor fit]

## COCCCNC(=O)c1oc2c(c1C)-c1nn(Cc3ccc(Cl)cc3)cc1CC2
[1]
  AC50: 0.0398 µM [falling, full curve]

## O=C(c1cc2ccccn2n1)N1CCN(c2ccccn2)CC1
[1]
  AC50: 10 µM [falling, partial curve]

## COC(=O)C1=C(C)N(c2ccc(F)c(Cl)c2)C(=O)C1
[1]
  AC50: 3.16 µM [falling, partial curve]

## O=C(O)c1c(-c2ccccc2)oc2ccc(OCc3ccc(Cl)c(Cl)c3)cc12
[1]
  AC50: 15.8 µM [falling, partial curve]

## Cc1ccc(Nc2nc(N)nc(CN3CCN(Cc4ccc5c(c4)OCO5)CC3)n2)cc1
[1]
  AC50: 15.8 µM [falling, partial curve]

## COc1ccc(S(=O)(=O)Nc2ccc3oc4c(c3c2)C(=O)CC(C)(C)C4)cc1
[1]
  AC50: 10 µM [falling, partial curve, poor fit]

## O=c1[nH]c2cc3c(cc2cc1CN(Cc1ccccc1)Cc1nnnn1Cc1ccco1)OCCO3
[1]
  AC50: 3.16 µM [falling, full curve]

## Cc1ccc(C)c(N2CCN(C(=O)c3cc4c(=O)n(Cc5ccco5)ccc4nc3C)CC2)c1
[1]
  AC50: 20 µM [falling, partial curve]

## COc1cccc(C(=O)Nc2cccc(NC(=O)c3ccc(Cl)cc3Cl)c2)c1
[1]
  AC50: 10 µM [falling, partial curve]

## CCC(C)Nc1sc(S(=O)(=O)CC)nc1S(=O)(=O)c1ccc(C)cc1 (stereo not drawn)
[1]
  AC50: 15.8 µM [falling, partial curve]

## COC(=O)c1[nH]c2ccccc2c1NC(=O)CN1CCN(c2cccc(Cl)c2)CC1
[1]
  AC50: 15.8 µM [falling, partial curve]

## Cc1cccc(NS(=O)(=O)c2ccc3c(c2)[C@H]2C=CC[C@H]2[C@@H](c2ccc(F)cc2)N3)c1
[1]
  AC50: 10 µM [falling, partial curve]

## CCCOc1ccc(-c2nn(-c3ccccc3)cc2C2NC(=O)NC(C)=C2C(=O)OC)cc1 (stereo not drawn)
[1]
  AC50: 25.1 µM [falling, partial curve]

## CCc1ccc(C(=O)c2cn(CC(=O)Nc3cc(OC)ccc3OC)c3ccc(C)cc3c2=O)cc1
[1]
  AC50: 25.1 µM [falling, partial curve]

## Cc1ccc(C)c(NC(=O)Cn2c(=O)nc(-c3ccccc3)c3ccccc32)c1
[1]
  AC50: 12.6 µM [falling, single point]

## COc1ccc(-c2nc(CCNC(=O)c3cccs3)cs2)cc1
[1]
  AC50: 39.8 µM [falling, single point]

## COc1ccc(NC(=O)CSC2=Nc3ccccc3C3=NC(CCC(=O)NCc4ccc(F)cc4)C(=O)N23)cc1Cl (stereo not drawn)
[1]
  AC50: 15.8 µM [falling, partial curve]

## CCOC(=O)c1ccc(NC(=O)CC2Sc3ccc(C(F)(F)F)cc3NC2=O)cc1 (stereo not drawn)
[1]
  AC50: 20 µM [falling, single point]

## COc1cccc(N2CCN(C(=O)C3CCN(S(=O)(=O)c4cccc5nonc45)CC3)CC2)c1
[1]
  AC50: 10 µM [falling, partial curve]

## Cc1cc(NC(=O)CCNS(=O)(=O)c2ccc3c(c2)CCCC(=O)N3)ccc1Br
[1]
  AC50: 20 µM [falling, partial curve, poor fit]

## CCOC(=O)N1CCC(N2Cc3cccc(C(=O)NCc4ccccc4OC)c3C2=O)CC1
[1]
  AC50: 15.8 µM [falling, partial curve]

## Cc1ccc(-n2c3c(cc(-c4nc(-c5ccc(Cl)cc5)cs4)c2=O)C(=O)CC(C)(C)C3)cc1C
[1]
  AC50: 39.8 µM [falling, single point]

## COC(=O)c1ccc(CSc2nc(C)nc3sc(C)c(C)c23)o1
[2]
  AC50: 39.8 µM [rising, single point]
[3]
  AC50: 31.6 µM [rising, single point]

## Cc1ccc(C)c(N2CCN(C(=O)CCc3nnc4n(CC(C)C)c(=O)c5ccccc5n34)CC2)c1
[1]
  AC50: 31.6 µM [falling, partial curve]

## CCn1cc(C(=O)N2CCN(c3cccc(Cl)c3)CC2)c2cc(OC)c(OC)cc2c1=O
[1]
  AC50: 15.8 µM [falling, partial curve]

## Cc1ccc(CN2CCc3nc(Nc4ccc5c(c4)OCCO5)ncc3C2)cc1
[1]
  AC50: 20 µM [falling, partial curve]

## Cc1cc(C)c(C#N)c(N2CCSCC2)n1
[1]
  AC50: 2.51 µM [rising, full curve, poor fit]

## CCOC(=O)c1ccc(NC(=O)CCn2c(=O)c3cccn3c3cccnc32)cc1
[1]
  AC50: 5.01 µM [rising, single point]

## O=C(Nc1ccc(F)cc1F)c1cc(-c2ccc(Cl)cc2)on1
[1]
  AC50: 0.2 µM [falling, full curve]

## CCc1cccc(NS(=O)(=O)c2ccc(-n3cccn3)cc2)c1
[1]
  AC50: 3.98 µM [falling, partial curve]

## O=c1cnn(-c2ccccc2)c(-c2ccccc2)c1
[1]
  AC50: 1 µM [rising, full curve, poor fit]

## COc1ccc(NC(=O)c2ccc3c(SCC(=O)O)c4c(nc3c2)CCCC4)c(OC)c1
[1]
  AC50: 25.1 µM [falling, partial curve]

## COC(=O)Oc1nsnc1N1CCOCC1
[1]
  AC50: 31.6 µM [rising, single point] [measured here: IkB-luc green channel]
